The results in this text go back to patent US20210198329A1 (PASTEUR INSTITUTE OF IRAN, published 2021).

The chains behind the UniProt entries cited, without tags or fusion partners. Residues count along the entry.
UniProt O75581, residues 20-1370: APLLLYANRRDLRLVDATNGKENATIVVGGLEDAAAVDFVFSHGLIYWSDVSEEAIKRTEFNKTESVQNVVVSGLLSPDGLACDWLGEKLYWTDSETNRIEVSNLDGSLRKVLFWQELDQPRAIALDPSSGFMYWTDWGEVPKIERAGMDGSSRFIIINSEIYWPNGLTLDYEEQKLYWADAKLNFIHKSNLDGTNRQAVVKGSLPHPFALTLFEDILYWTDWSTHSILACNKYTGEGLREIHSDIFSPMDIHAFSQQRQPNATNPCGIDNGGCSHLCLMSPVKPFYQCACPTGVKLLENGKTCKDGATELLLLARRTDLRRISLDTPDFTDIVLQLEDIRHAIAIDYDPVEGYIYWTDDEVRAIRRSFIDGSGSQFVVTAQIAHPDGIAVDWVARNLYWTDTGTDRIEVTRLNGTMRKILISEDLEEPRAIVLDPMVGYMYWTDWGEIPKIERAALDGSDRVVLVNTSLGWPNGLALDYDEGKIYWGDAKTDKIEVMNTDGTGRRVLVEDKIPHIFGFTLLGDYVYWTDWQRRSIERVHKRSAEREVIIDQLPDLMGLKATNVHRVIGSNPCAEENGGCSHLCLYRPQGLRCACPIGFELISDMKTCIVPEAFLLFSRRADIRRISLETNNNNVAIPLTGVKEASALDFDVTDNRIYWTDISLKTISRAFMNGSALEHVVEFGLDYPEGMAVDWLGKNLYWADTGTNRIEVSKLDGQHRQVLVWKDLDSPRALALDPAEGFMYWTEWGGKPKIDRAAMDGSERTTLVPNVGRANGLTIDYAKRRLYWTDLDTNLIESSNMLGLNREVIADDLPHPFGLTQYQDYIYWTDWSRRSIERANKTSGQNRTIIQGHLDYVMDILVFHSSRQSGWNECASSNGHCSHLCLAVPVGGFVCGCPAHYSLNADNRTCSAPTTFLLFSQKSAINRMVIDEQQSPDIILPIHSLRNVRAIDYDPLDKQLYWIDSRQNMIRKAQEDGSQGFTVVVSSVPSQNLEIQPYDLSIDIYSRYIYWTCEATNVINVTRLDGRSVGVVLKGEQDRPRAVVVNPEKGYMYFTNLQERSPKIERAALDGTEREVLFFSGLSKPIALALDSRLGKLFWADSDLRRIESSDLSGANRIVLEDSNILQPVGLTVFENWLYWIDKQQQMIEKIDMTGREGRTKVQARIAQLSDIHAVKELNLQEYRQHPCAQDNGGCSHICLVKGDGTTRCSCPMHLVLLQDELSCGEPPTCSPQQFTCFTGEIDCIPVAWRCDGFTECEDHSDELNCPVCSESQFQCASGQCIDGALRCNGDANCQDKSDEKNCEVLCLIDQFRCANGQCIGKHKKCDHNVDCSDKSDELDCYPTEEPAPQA

Test [1] addresses low-density lipoprotein receptor-related protein 6 (LRP6) (UniProt O75581). Put plainly: LSPR spectroscopy.
Test [2] shares this target. Kind of test: LSPR spectroscopy; peptide immobilised on nanoparticles as ligand, LRP6 added as analyte; x axis is the LRP6 concentration (M), axis broken twice.

No constants are given. Whether binding was seen depends on the method and setting. Some results given as binding are weak or reduced against the parent protein; the word gives no strength.

B1: pep-2 (SEQ ID NO: 2) (peptide)
peptide: QVCTKHRRKGSHGLEIFQRCY
notes: Held on nanoparticles as the ligand in the LSPR assay
As for B1, the binding result in test [1] and in test [2] was “binds” each time.
